Among the data in paper PMC10986487, “Epidrugs: alternative chemotherapy targeting Theileria annulata schizont stage parasites” (Microbiology Spectrum, 2024) are IC50 values, retold here.

Broadly, the IC50 is the concentration that gives 50% inhibition.

In this assay the test system is T. annulata-infected bovine cells. As to the kind of experiment: Resazurin-based drug susceptibility assay, 2-fold serial dilutions, 48 hours. The class given is cell-based. The settings on record: Theileria annulata, 0.019 µM to 10 µM, read-out: IC50 against T. annulata-infected cells. As for the experimental part: In this study, we conducted a screening of 148 compounds from the Cayman epigenetics library against the asexual schizont stage of T. annulata-infected bovine cells to assess their potential anti-theilerial activity (Fig. 1A). The initial screening involved testing the compounds at a concentration of 10 µM, with BPQ serving as the internal control. […] Subsequently, we performed drug susceptibility assays on the selected 27 compounds to determine their 50% inhibitory concentration (IC50) values against T. annulata-infected cells. To do this, 2-fold serial dilutions ranging from 0.019 µM to 10 µM were prepared, and the percentage of cell death was assessed after 48 hours using resazurin-based assays.
Fig 1 Screening of epigenetic inhibitors for potential anti-theilerial activity in T. annulata-infected cells. (A) List of compounds and their functional classes used in this study. (B) Inhibition (%) of the hits (n = 27) with anti-theilerial activity when screened in T. annulata-infected cells, where the cut-off (--) was set at 50% inhibition. […] (E) Flow cytometry-based detection of annexin V-positive T. annulata-infected cells upon drug treatment for detection of early apoptosis.

On to `O=C(CCCCCCC(=O)Nc1ccccc1)NO` [SAHA], for which the IC50 was 0.1 µM.
